Assay results from patent publication US20080076718A1, “Novel Proteasome Modulators” (priority 2003, published 2008).
At least one structure is not confirmed: it was looked up by name or label, or the drawing left a doubt. Ends that are not written are not given here.

The chains behind the UniProt entries cited, without tags or fusion partners. Where a name states a change or a piece, a line headed by the entry shows the natural chain unless it says otherwise.
UniProt P23724: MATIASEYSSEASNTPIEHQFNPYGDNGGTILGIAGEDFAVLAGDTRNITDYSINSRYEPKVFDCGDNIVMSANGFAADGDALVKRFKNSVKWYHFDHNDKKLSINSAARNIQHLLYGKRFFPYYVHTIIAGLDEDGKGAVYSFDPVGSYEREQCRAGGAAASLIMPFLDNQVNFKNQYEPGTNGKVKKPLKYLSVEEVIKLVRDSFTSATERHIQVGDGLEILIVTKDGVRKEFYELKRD
UniProt P30656: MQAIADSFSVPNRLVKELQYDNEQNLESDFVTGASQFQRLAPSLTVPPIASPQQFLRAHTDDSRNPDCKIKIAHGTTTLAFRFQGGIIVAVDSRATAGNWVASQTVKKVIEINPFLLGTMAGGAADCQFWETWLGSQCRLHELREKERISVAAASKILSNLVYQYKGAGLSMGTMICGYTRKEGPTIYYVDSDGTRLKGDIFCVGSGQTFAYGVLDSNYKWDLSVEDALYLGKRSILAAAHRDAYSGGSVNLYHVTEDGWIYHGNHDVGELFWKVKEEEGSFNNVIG

Molecular target: T1, yeast activated 20S proteasome (CT-L activity) (Saccharomyces cerevisiae, UniProt P23724+P30656)
T1 construct: The yeast (Saccharomyces cerevisae) 26S and 20S proteasomes were purified according to the protocol described in; made in house; host or cells: Saccharomyces cerevisiae (native complex purified from yeast by the cited Leggett et al. 2002 protocol)
Assay: Inhibition of the CT-L (chymotrypsin-like) peptidase activity of the activated 20S proteasome, substrate Suc-LLVY-amc
Assay type: biochemical, yeast (Saccharomyces cerevisae)
Details: estimated values; activity type not named at the place; peptide tested under conditions where its hydrolysis is negligible; read-out: IC50 (activated 20S proteasome inhibitor)
Description: The yeast (Saccharomyces cerevisae) 26S and 20S proteasomes were purified according to the protocol described in: LEGGETT et al. (2002) Molecular Cell, 10, pp 495-507.
The peptidase activities were determined using the fluorogenic substrates Suc-LLVY-amc (CT-L), Z-LLE-βNA (PA) and Boc-LRR-amc (T-L), provided by the company Bachem (Voisins-le-Bretonneux, France).
The peptidase activities of the yeast and Xenopus 26S proteasomes and those of the yeast 20S proteasome, latent and activated, were determined under the conditions described in Table II.
The compounds studied are solubilized in the buffer (peptides, pseudopeptides) or in DMSO (lipopeptides, photoactivatable peptides). The enzyme is preincubated (15 min at 30° C.) in the corresponding buffer (Table II), in the presence of the inhibitor. […] It is continuously monitored for 30 min at 30° C. The initial rates of the assays with inhibitors (calculated from the experimental points) are compared with those of the controls. […]
The enzyme is preincubated in the presence of increasing concentrations of inhibitor. […] The percentage inhibition is calculated from equation 1. […]
The mechanism of inhibition is determined by tracing the curve of the evolution of the V0/Vi ratio as a function of the concentration of inhibitor.

For “TNLGPS [TLNGPS, TNLGPS, reference compound]”, the IC50 was 1750 µM.
